In publication doi:10.1101/2020.11.05.370551:
No constants are given. Whether binding was seen depends on the method and setting. In cells and extracts the contact can be indirect. Some results given as binding are weak or reduced against the parent protein; the word gives no strength.

Experiments:
[1] = target: Mtb PknG secreted by M. tuberculosis H37Rv in infected U937 cells (Mycobacterium tuberculosis H37Rv) (UniProt P9WI73); experiment: co-IP
[2] = target: GFP-tagged Mtb PknG (HEK293T) (Mycobacterium tuberculosis) (UniProt P9WI73); experiment: co-IP

| Binder | binding [1] | binding [2] |
| --- | --- | --- |
| TAB2 (endogenous, U937 cells) (protein, UniProt Q9NYJ8 1-693) MAQGSHQIDFQVLHDLRQKFPEVPEVVVSRCMLQNNNNLDACCAVLSQESTRYLYGEGDLNFSDDSGISGLRNHMTSLNLDLQSQNIYHHGREGSRMNGSRTLTHSISDGQLQGGQSNSELFQQEPQTAPAQVPQGFNVFGMSSSSGASNSAPHLGFHLGSKGTSSLSQQTPRFNPIMVTLAPNIQTGRNTPTSLHIHGVPPPVLNSPQGNSIYIRPYITTPGGTTRQTQQHSGWVSQFNPMNPQQVYQPSQPGPWTTCPASNPLSHTSSQQPNQQGHQTSHVYMPISSPTTSQPPTIHSSGSSQSSAHSQYNIQNISTGPRKNQIEIKLEPPQRNNSSKLRSSGPRTSSTSSSVNSQTLNRNQPTVYIAASPPNTDELMSRSQPKVYISANAATGDEQVMRNQPTLFISTNSGASAASRNMSGQVSMGPAFIHHHPPKSRAIGNNSATSPRVVVTQPNTKYTFKITVSPNKPPAVSPGVVSPTFELTNLLNHPDHYVETENIQHLTDPTLAHVDRISETRKLSMGSDDAAYTQALLVHQKARMERLQRELEIQKKKLDKLKSEVNEMENNLTRRRLKRSNSISQIPSLEEMQQLRSCNRQLQIDIDCLTKEIDLFQARGPHFNPSAIHNFYDNIGFVGPVPPKPKDQRSIIKTPKTQDTEDDEGAQWNCTACTFLNHPALIRCEQCEMPRHF | no binding | – |
| TAB2 (HEK293T cells) (protein, UniProt Q9NYJ8 1-693) MAQGSHQIDFQVLHDLRQKFPEVPEVVVSRCMLQNNNNLDACCAVLSQESTRYLYGEGDLNFSDDSGISGLRNHMTSLNLDLQSQNIYHHGREGSRMNGSRTLTHSISDGQLQGGQSNSELFQQEPQTAPAQVPQGFNVFGMSSSSGASNSAPHLGFHLGSKGTSSLSQQTPRFNPIMVTLAPNIQTGRNTPTSLHIHGVPPPVLNSPQGNSIYIRPYITTPGGTTRQTQQHSGWVSQFNPMNPQQVYQPSQPGPWTTCPASNPLSHTSSQQPNQQGHQTSHVYMPISSPTTSQPPTIHSSGSSQSSAHSQYNIQNISTGPRKNQIEIKLEPPQRNNSSKLRSSGPRTSSTSSSVNSQTLNRNQPTVYIAASPPNTDELMSRSQPKVYISANAATGDEQVMRNQPTLFISTNSGASAASRNMSGQVSMGPAFIHHHPPKSRAIGNNSATSPRVVVTQPNTKYTFKITVSPNKPPAVSPGVVSPTFELTNLLNHPDHYVETENIQHLTDPTLAHVDRISETRKLSMGSDDAAYTQALLVHQKARMERLQRELEIQKKKLDKLKSEVNEMENNLTRRRLKRSNSISQIPSLEEMQQLRSCNRQLQIDIDCLTKEIDLFQARGPHFNPSAIHNFYDNIGFVGPVPPKPKDQRSIIKTPKTQDTEDDEGAQWNCTACTFLNHPALIRCEQCEMPRHF | – | no binding |
| TAB3 (endogenous, U937 cells) (protein, UniProt Q8N5C8 1-712) MAQSSPQLDIQVLHDLRQRFPEIPEGVVSQCMLQNNNNLEACCRALSQESSKYLYMEYHSPDDNRMNRNRLLHINLGIHSPSSYHPGDGAQLNGGRTLVHSSSDGHIDPQHAAGKQLICLVQEPHSAPAVVAATPNYNPFFMNEQNRSAATPPSQPPQQPSSMQTGMNPSAMQGPSPPPPPPSYMHIPRYSTNPITVTVSQNLPSGQTVPRALQILPQIPSNLYGSPGSIYIRQTSQSSSGRQTPQSTPWQSSPQGPVPHYSQRPLPVYPHQQNYQPSQYSPKQQQIPQSAYHSPPPSQCPSPFSSPQHQVQPSQLGHIFMPPSPSTTPPHPYQQGPPSYQKQGSHSVAYLPYTASSLSKGSMKKIEITVEPSQRPGTAINRSPSPISNQPSPRNQHSLYTATTPPSSSPSRGISSQPKPPFSVNPVYITYTQPTGPSCTPSPSPRVIPNPTTVFKITVGRATTENLLNLVDQEERSAAPEPIQPISVIPGSGGEKGSHKYQRSSSSGSDDYAYTQALLLHQRARMERLAKQLKLEKEELERLKSEVNGMEHDLMQRRLRRVSCTTAIPTPEEMTRLRSMNRQLQINVDCTLKEVDLLQSRGNFDPKAMNNFYDNIEPGPVVPPKPSKKDSSDPCTIERKARRISVTSKVQADIHDTQAAAADEHRTGSTQSPRTQPRDEDYEGAPWNCDSCTFLNHPALNRCEQCEMPRYT | no binding | – |
| TAB3 (HEK293T cells) (protein, UniProt Q8N5C8 1-712) MAQSSPQLDIQVLHDLRQRFPEIPEGVVSQCMLQNNNNLEACCRALSQESSKYLYMEYHSPDDNRMNRNRLLHINLGIHSPSSYHPGDGAQLNGGRTLVHSSSDGHIDPQHAAGKQLICLVQEPHSAPAVVAATPNYNPFFMNEQNRSAATPPSQPPQQPSSMQTGMNPSAMQGPSPPPPPPSYMHIPRYSTNPITVTVSQNLPSGQTVPRALQILPQIPSNLYGSPGSIYIRQTSQSSSGRQTPQSTPWQSSPQGPVPHYSQRPLPVYPHQQNYQPSQYSPKQQQIPQSAYHSPPPSQCPSPFSSPQHQVQPSQLGHIFMPPSPSTTPPHPYQQGPPSYQKQGSHSVAYLPYTASSLSKGSMKKIEITVEPSQRPGTAINRSPSPISNQPSPRNQHSLYTATTPPSSSPSRGISSQPKPPFSVNPVYITYTQPTGPSCTPSPSPRVIPNPTTVFKITVGRATTENLLNLVDQEERSAAPEPIQPISVIPGSGGEKGSHKYQRSSSSGSDDYAYTQALLLHQRARMERLAKQLKLEKEELERLKSEVNGMEHDLMQRRLRRVSCTTAIPTPEEMTRLRSMNRQLQINVDCTLKEVDLLQSRGNFDPKAMNNFYDNIEPGPVVPPKPSKKDSSDPCTIERKARRISVTSKVQADIHDTQAAAADEHRTGSTQSPRTQPRDEDYEGAPWNCDSCTFLNHPALNRCEQCEMPRYT | – | no binding |
| TAK1 (endogenous, U937 cells) (enzyme, UniProt O43318 1-606) MSTASAASSSSSSSAGEMIEAPSQVLNFEEIDYKEIEVEEVVGRGAFGVVCKAKWRAKDVAIKQIESESERKAFIVELRQLSRVNHPNIVKLYGACLNPVCLVMEYAEGGSLYNVLHGAEPLPYYTAAHAMSWCLQCSQGVAYLHSMQPKALIHRDLKPPNLLLVAGGTVLKICDFGTACDIQTHMTNNKGSAAWMAPEVFEGSNYSEKCDVFSWGIILWEVITRRKPFDEIGGPAFRIMWAVHNGTRPPLIKNLPKPIESLMTRCWSKDPSQRPSMEEIVKIMTHLMRYFPGADEPLQYPCQYSDEGQSNSATSTGSFMDIASTNTSNKSDTNMEQVPATNDTIKRLESKLLKNQAKQQSESGRLSLGASRGSSVESLPPTSEGKRMSADMSEIEARIAATTAYSKPKRGHRKTASFGNILDVPEIVISGNGQPRRRSIQDLTVTGTEPGQVSSRSSSPSVRMITTSGPTSEKPTRSHPWTPDDSTDTNGSDNSIPMAYLTLDHQLQPLAPCPNSKESMAVFEQHCKMAQEYMKVQTEIALLLQRKQELVAELDQDEKDQQNTSRLVQEHKKLLDENKSLSTYYQQCKKQLEVIRSQQQKRQGTS | binds | – |
| TAK1 (HEK293T cells) (enzyme, UniProt O43318 1-606) MSTASAASSSSSSSAGEMIEAPSQVLNFEEIDYKEIEVEEVVGRGAFGVVCKAKWRAKDVAIKQIESESERKAFIVELRQLSRVNHPNIVKLYGACLNPVCLVMEYAEGGSLYNVLHGAEPLPYYTAAHAMSWCLQCSQGVAYLHSMQPKALIHRDLKPPNLLLVAGGTVLKICDFGTACDIQTHMTNNKGSAAWMAPEVFEGSNYSEKCDVFSWGIILWEVITRRKPFDEIGGPAFRIMWAVHNGTRPPLIKNLPKPIESLMTRCWSKDPSQRPSMEEIVKIMTHLMRYFPGADEPLQYPCQYSDEGQSNSATSTGSFMDIASTNTSNKSDTNMEQVPATNDTIKRLESKLLKNQAKQQSESGRLSLGASRGSSVESLPPTSEGKRMSADMSEIEARIAATTAYSKPKRGHRKTASFGNILDVPEIVISGNGQPRRRSIQDLTVTGTEPGQVSSRSSSPSVRMITTSGPTSEKPTRSHPWTPDDSTDTNGSDNSIPMAYLTLDHQLQPLAPCPNSKESMAVFEQHCKMAQEYMKVQTEIALLLQRKQELVAELDQDEKDQQNTSRLVQEHKKLLDENKSLSTYYQQCKKQLEVIRSQQQKRQGTS | – | binds |
